Molecules are shown by their SMILES. Structures can show the parent of a compound that is named as a salt. Some of the results follow. The data scatter; read single values as rough.

This assay has as its system Peyronie's disease tunica albuginea primary fibroblasts. In words: cell viability (DRAQ5 nuclear stain) relative to TGF-beta1-only control; higher = more viable cells. Conditions: 10 µM; TGF-beta1 10 ng/mL; 72 h.
On to `CN(C)CCN(Cc1ccccc1)c1ccccn1` [Tripelennamine HCl], for which the cell viability stood at 98%.

With `CC1CNc2c(cccc2S(=O)(=O)N[C@@H](CCCNC(=N)N)C(=O)N2CC[C@@H](C)C[C@@H]2C(=O)O)C1` (stereo not given in full) [Argatroban], the cell viability was 89.3%.

Take `CC1CNc2c(cccc2S(=O)(=O)N[C@@H](CCCNC(=N)N)C(=O)N2CC[C@@H](C)C[C@@H]2C(=O)O)C1` (stereo not given in full) [Argatroban Monohydrate]: the cell viability stood at 82.6%.

Regarding `Nc1ccn([C@@H]2O[C@H](CO)[C@@H](O)C2(F)F)c(=O)n1` [Gemcitabine HCl], the cell viability turned out to be 71.7%.

In the case of `Nc1ccn([C@@H]2O[C@H](CO)[C@@H](O)C2(F)F)c(=O)n1` [Gemcitabine], the cell viability was determined as 66.7%.

Consider `CC(O)C(=O)O.N` (stereo not given) [Ammonium lactate], for which the cell viability was 104%.

Turning to `CC(=O)O[C@@]12CO[C@@H]1C[C@H](O)[C@@]1(C)C(=O)[C@H](O)C3=C(C)[C@@H](OC(=O)[C@H](O)[C@@H](NC(=O)OC(C)(C)C)c4ccccc4)C[C@@](O)([C@@H](OC(=O)c4ccccc4)[C@H]21)C3(C)C` [Docetaxel Trihydrate], the cell viability came to 64.9%.

In the case of `CC(=O)O[C@@]12CO[C@@H]1C[C@H](O)[C@@]1(C)C(=O)[C@H](O)C3=C(C)[C@@H](OC(=O)[C@H](O)[C@@H](NC(=O)OC(C)(C)C)c4ccccc4)C[C@@](O)([C@@H](OC(=O)c4ccccc4)[C@H]21)C3(C)C` [Docetaxel], the cell viability came out at 54.4%.

Turning to `COc1cc(O)c(C(=O)c2ccccc2)cc1S(=O)(=O)O` [Sulisobenzone], the cell viability was 98.4%.

For the molecule `Nc1cccc2c1C(=O)N(C1CCC(=O)NC1=O)C2=O` (stereo not given) [Pomalidomide], the cell viability is 65.4%.

Consider `COc1cc(C(=O)O)ccc1NC(=O)[C@@H]1N[C@@H](CC(C)(C)C)[C@](C#N)(c2ccc(Cl)cc2F)[C@H]1c1cccc(Cl)c1F` [Idasanutlin (RG-7388)], for which the cell viability turned out to be 68.4%.

Consider `CC1(C)CCC(C)(C)c2cc(NC(=O)c3ccc(C(=O)O)cc3)ccc21` [Tamibarotene], for which the cell viability came to 85.5%.

On to `N[C@@H](Cc1cc(I)c(Oc2cc(I)c(O)c(I)c2)c(I)c1)C(=O)O` [Levothyroxine sodium], for which the cell viability came to 92.5%.

As to `N[C@@H](Cc1cc(I)c(Oc2cc(I)c(O)c(I)c2)c(I)c1)C(=O)O` [L-Thyroxine], the cell viability was 83.8%.

With `N=C(N)NC(=O)Cc1c(Cl)cccc1Cl` [Guanfacine Hydrochloride], the cell viability was 113%.

Consider `CC(=O)[C@H]1CC[C@H]2[C@@H]3CCC4=CC(=O)CC[C@]4(C)[C@H]3CC[C@]12C` [Progesterone], for which the cell viability stood at 90.6%.

Consider `O=C(O)CSc1nnc(Br)n1-c1ccc(C2CC2)c2ccccc12` [Lesinurad], for which the cell viability was determined as 95.3%.

For `CN(C)CC/C=C1/c2ccccc2Sc2ccc(Cl)cc21` [Chlorprothixene hydrochloride], the cell viability came out at 83.9%.

With `CN(C)CC/C=C1/c2ccccc2Sc2ccc(Cl)cc21` [Chlorprothixene], the cell viability came to 81.1%.

`CN(C)CCOC(c1ccccc1)c1ccccc1` [Diphenhydramine HCl]: the cell viability came out at 92.9%.

With `C[C@]12CC[C@@H]3c4ccc(O)cc4CC[C@H]3[C@@H]1CC[C@@H]2O` [Estradiol], the cell viability is 97.2%.

`CCCC(CCC)C(N)=O` [Valpromide]: the cell viability amounted to 89%.

In the case of `CCN(CC)C(=O)c1cccc(C)c1`, the cell viability was found to be 90.7%.

`CCN(CC)C(=O)c1cccnc1` [Nikethamide]: the cell viability worked out at 84%.

`CC(OC(=O)OC1CCCCC1)OC(=O)C1=C(CSc2nnnn2CCN(C)C)CS[C@@H]2[C@H](NC(=O)Cc3csc(N)n3)C(=O)N12` (stereo not given in full) [Cefotiam Hexetil Hydrochloride]: the cell viability was 93.9%.

Regarding `CCCN(CCC)S(=O)(=O)c1ccc(C(=O)O)cc1` [Probenecid], the cell viability amounted to 92.9%.

In the case of `Cc1c(-c2ccccc2)oc2c(C(=O)OCCN3CCCCC3)cccc2c1=O` [Flavoxate HCl], the cell viability stood at 79%.

Regarding `COc1ccc(O)cc1` [Mequinol], the cell viability is 92.1%.

`CCCCCCOC(=O)NC(=N)c1ccc(NCc2nc3cc(C(=O)N(CCC(=O)OCC)c4ccccn4)ccc3n2C)cc1` [Dabigatran Etexilate]: the cell viability turned out to be 86.1%.

As to `NCCCC(=O)O` [4-Aminobutyric acid], the cell viability was found to be 97.7%.

As for `CCN(CC)CCOC(=O)c1ccc(N)cc1Cl` [Chloroprocaine HCl], the cell viability was determined as 91.5%.

With `C[C@@H]1NC(=O)[C@@H](N)CNC(=O)[C@H](C2CCNC(=N)N2)NC(=O)/C(=C/NC(N)=O)NC(=O)[C@H](CNC(=O)CC(N)CCCN)NC1=O.N=C1NCC[C@H]([C@@H]2NC(=O)/C(=C/NC(N)=O)NC(=O)[C@H](CNC(=O)C[C@@H](N)CCCN)NC(=O)[C@H](CO)NC(=O)[C@@H](N)CNC2=O)N1` [Capreomycin Sulfate], the cell viability is 92.7%.

On to `CC12CCC(CC1=O)C2(C)C` (stereo not drawn) [(+)-Camphor], for which the cell viability was determined as 98.3%.

In the case of `C#Cc1cccc(Nc2ncnc3cc(OCCOC)c(OCCOC)cc23)c1` [Erlotinib HCl (OSI-744)], the cell viability came to 88.3%.

As to `C#Cc1cccc(Nc2ncnc3cc(OCCOC)c(OCCOC)cc23)c1` [Erlotinib], the cell viability was 87%.

For `Cc1onc(-c2ccccc2Cl)c1C(=O)N[C@@H]1C(=O)N2[C@@H]1SC(C)(C)[C@@H]2C(=O)O` [Cloxacillin Sodium], the cell viability turned out to be 92.2%.

For `CN[C@@H]1[C@H](O)[C@H](NC)[C@H]2O[C@@]3(O)C(=O)C[C@@H](C)O[C@H]3O[C@@H]2[C@H]1O` [Spectinomycin 2HCl], the cell viability was determined as 91.4%.

Take `NS(=O)(=O)c1cc2c(cc1Cl)NC(C(Cl)Cl)NS2(=O)=O` (stereo not given) [Trichlormethiazide]: the cell viability is 94%.

For `COc1ccccc1Oc1c(NS(=O)(=O)c2ccc(C(C)(C)C)cc2)nc(-c2ncccn2)nc1OCCO` [Bosentan Hydrate], the cell viability was determined as 98.1%.

On to `COc1cc2c(Oc3ccc(NC(=O)C4(C(=O)Nc5ccc(F)cc5)CC4)cc3F)ccnc2cc1OCCCN1CCOCC1`, for which the cell viability is 36.3%.

For `CC(C)[N+](C)(CCOC(=O)C1c2ccccc2Oc2ccccc21)C(C)C` [Propantheline bromide], the cell viability turned out to be 85.3%.

As to `CN1CCC[C@@H]1Cc1c[nH]c2ccc(CCS(=O)(=O)c3ccccc3)cc12` [Eletriptan HBr], the cell viability stood at 94%.

As for `CN(C)CCC=C1c2ccccc2COc2ccccc21` [Doxepin HCl], the cell viability turned out to be 76.4%.

Take `O=C(N[C@H](CO)[C@H](O)c1ccc([N+](=O)[O-])cc1)C(Cl)Cl` [Chloramphenicol]: the cell viability came out at 90.1%.

Take `CCC[C@@H]1C[C@@H](C(=O)N[C@@H]([C@H]2O[C@H](SC)[C@H](O)[C@@H](O)[C@H]2O)[C@H](C)Cl)N(C)C1` [Clindamycin]: the cell viability came out at 89.4%.

In the case of `CCC[C@@H]1C[C@@H](C(=O)N[C@@H]([C@H]2O[C@H](SC)[C@H](O)[C@@H](O)[C@H]2O)[C@H](C)Cl)N(C)C1` [Clindamycin HCl], the cell viability stood at 98.7%.

With `C=C1/C(=C\C=C2/CCC[C@]3(C)[C@@H]([C@H](C)CCCC(C)C)CC[C@@H]23)C[C@@H](O)C[C@@H]1O` [Alfacalcidol], the cell viability amounted to 69.3%.

Turning to `CCOc1ccc2ccccc2c1C(=O)N[C@@H]1C(=O)N2[C@@H]1SC(C)(C)[C@@H]2C(=O)O` [Nafcillin Sodium], the cell viability stood at 90.6%.

`CCN(CC)CCNC(=O)c1cc(Cl)c(N)cc1OC` [Metoclopramide HCl]: the cell viability was found to be 86.3%.

Regarding `CC1=NN(c2ccccc2)C(=O)C1` [Edaravone], the cell viability stood at 87.1%.

In the case of `CN1CC(=O)N2[C@H](c3ccc4c(c3)OCO4)c3[nH]c4ccccc4c3C[C@@H]2C1=O` [Tadalafil], the cell viability was 86.6%.

For the molecule `CCN(C(=O)c1c(O)c2c(Cl)cccc2n(C)c1=O)c1ccccc1` [Laquinimod], the cell viability is 96.7%.

Consider `CC(=O)[C@@]1(O)CC[C@H]2[C@@H]3C[C@H](C)C4=CC(=O)C=C[C@]4(C)[C@@]3(F)[C@@H](O)C[C@@]21C` [Fluorometholone], for which the cell viability came to 93%.

As for `CCc1nc(N)nc(N)c1-c1ccc(Cl)cc1` [Pyrimethamine], the cell viability was 94.4%.

Turning to `CC(C)NCC(O)COc1ccc(CCOCC2CC2)cc1` (stereo not given) [Betaxolol HCl], the cell viability came to 88.3%.

For the molecule `CC(C)NCC(O)COc1ccc(CCOCC2CC2)cc1` (stereo not given) [Betaxolol], the cell viability is 91.7%.

As for `COc1cc(C(=O)NCc2ccc(OCCN(C)C)cc2)cc(OC)c1OC` [Tribenzagan Hydrochloride], the cell viability is 78%.

For `CCCN1CCCC[C@H]1C(=O)Nc1c(C)cccc1C` [Ropivacaine], the cell viability stood at 101%.

In the case of `CCCN1CCCC[C@H]1C(=O)Nc1c(C)cccc1C` [Ropivacaine HCl], the cell viability came out at 88%.

On to `CC(C)(OCc1nn(Cc2ccccc2)c2ccccc12)C(=O)O` [Bindarit], for which the cell viability was determined as 90.1%.

Take `C/C(=C\c1csc(C)n1)[C@@H]1C[C@@H]2O[C@]2(C)CCC[C@H](C)[C@H](O)[C@@H](C)C(=O)C(C)(C)[C@@H](O)CC(=O)N1`: the cell viability turned out to be 68.7%.

As to `C#CCN[C@@H]1CCc2ccccc21` [Rasagiline Mesylate], the cell viability worked out at 94.4%.

Regarding `CCOc1nc2cccc(C(=O)OCc3oc(=O)oc3C)c2n1Cc1ccc(-c2ccccc2-c2noc(=O)[nH]2)cc1` [Azilsartan Medoxomil], the cell viability is 88.7%.

Regarding `CC(C)C(=O)Oc1ccc(CO)cc1[C@H](CCN(C(C)C)C(C)C)c1ccccc1` [Fesoterodine Fumarate], the cell viability is 100%.

For the molecule `O=C(O)C(=O)O.[NH-][C@@H]1CCCC[C@H]1[NH-].[Pt+2]` [Oxaliplatin], the cell viability is 67.9%.

As for `CCc1cc2c(cc1N1CCC(N3CCOCC3)CC1)C(C)(C)c1[nH]c3cc(C#N)ccc3c1C2=O` [Alectinib hydrochloride], the cell viability was determined as 97.8%.

In the case of `CCOC(=O)O[C@]1(C(=O)OCCl)CC[C@H]2[C@@H]3CCC4=CC(=O)C=C[C@]4(C)[C@H]3[C@@H](O)C[C@@]21C` [Loteprednol etabonate], the cell viability came out at 82.8%.

For `Clc1ccc(C(Cn2ccnc2)OCc2ccsc2Cl)c(Cl)c1` (stereo not given) [Tioconazole], the cell viability is 86.5%.

On to `NC(=O)CCC(N)C(=O)O` (racemic) [DL-Glutamine], for which the cell viability came to 91.9%.

On to `C[C@](N)(Cc1ccc(O)c(O)c1)C(=O)O` [Methyldopa], for which the cell viability is 92.5%.

A word on the cell viability: it is a read-out of living cells in per cent, often relative to untreated cells.

(Values after the supplement of paper PMC9744312.)
